Test results: the supplement of paper PMC8326762, “A Small Molecule Inhibitor of Pex3–Pex19 Interaction Disrupts Glycosome Biogenesis and Causes Lethality in Trypanosoma brucei” (Frontiers in Cell and Developmental Biology, 2021)
Counter-ions that a name gives are not always drawn. The list shows a part of the results. This is a noisy data set.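 Optical density at 600 nm measured yeast growth. Because the two-hybrid strains grew without histidine, growth required Pex3–Pex19 binding. Trypanosome selectivity meant a compound inhibited the trypanosome-pair strain's growth by more than 65% but the human-pair strain's by less than 65%.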

Legend:
[1] = test system: Saccharomyces cerevisiae HF7c pdr5Δ; assay: general growth inhibition of yeast HF7c pdr5Δ in -Leu -Trp medium, relative to DMSO; higher = stronger general growth inhibition; settings: 100 µM; 24 h
[2] = test system: human PEX3-PEX19 interaction (yeast two-hybrid); assay: growth inhibition of yeast two-hybrid strain reporting HsPex3-HsPex19 interaction, relative to DMSO; higher = stronger inhibition of human Pex3-Pex19 interaction / growth; settings: 100 µM; 24 h; 3-aminotriazole 10 mM
[3] = test system: T. brucei Pex3-Pex19 interaction (yeast two-hybrid); assay: growth inhibition of yeast two-hybrid strain reporting TbPex3-TbPex19 interaction, relative to DMSO; higher = stronger inhibition of T. brucei Pex3-Pex19 interaction / growth; settings: 100 µM; 24 h

SMILES | general growth inhibition [1] [%] | growth inhibition [2] [%] | growth inhibition [3] [%]
CC[C@@]1(O)C(=O)OCc2c1cc1n(c2=O)Cc2cc3c(CN(C)C)c(O)ccc3nc2-1 [Topotecan hydrochloride hydrate] | 47.6 | 48.1 | 67.6
CN1CCN(C2=Nc3cc(Cl)ccc3Nc3ccccc32)CC1 [Clozapine] | 38.7 | 38.8 | 64.6
CCN(CC)CCNC(=O)c1cc(S(C)(=O)=O)ccc1OC [Tiapride hydrochloride] | 48.4 | 53.5 | 55.4
CCOC(=O)c1ncn2c1CN(C)C(=O)c1cc(F)ccc1-2 [Flumazenil] | 33 | 27.2 | 60.8
CN1CCN(C2=Nc3ccccc3Oc3ccc(Cl)cc32)CC1 [Loxapine succinate] | 28.1 | 30.7 | 56
Cc1cc(O)c2c(c1)C(=O)c1cc(O)cc(O)c1C2=O [Emodin] | 13.8 | -14.9 | 10.7
Cc1ccc(N(CC2=NCCN2)c2cccc(O)c2)cc1 [Phentolamine mesylate] | 54.6 | 38.7 | 61.8
COc1ccccc1OCC(O)CN1CCN(CC(=O)Nc2c(C)cccc2C)CC1 (configuration not stated) [Ranolazine dihydrochloride] | 45.4 | 45.5 | 63.5
Cc1[nH]c(=O)c(C#N)cc1-c1ccncc1 [Milrinone] | 49.9 | 43.4 | 59.6
COCc1nc2c([nH]1)c(=O)n(C)c(=O)n2CC(C)C [8-Methoxymethyl-3-isobutyl-1-methylxanthine] | 53.5 | 46.1 | 66.6
c1ccc(CN2CCC3(CCCc4ccccc43)CC2)cc1 [L-687,384 hydrochloride] | 29 | 13.6 | 55.4
O=C1NCN(c2ccccc2)C12CCN(CCCC(c1ccc(F)cc1)c1ccc(F)cc1)CC2 [Fluspirilene] | 27.7 | 33.4 | 52.2
C[C@H](CSC(=O)c1ccccc1)C(=O)N1C[C@@H](Sc2ccccc2)C[C@H]1C(=O)O [Zofenopril calcium] | 56 | 26.3 | 35.9
Cc1ccc(S(=O)(=O)NC(=O)NN2CCCCCC2)cc1 [Tolazamide] | 14.6 | 16 | 42.5

Not a retest: 2 of the compounds above.
SMILES | general growth inhibition [1] [%] | growth inhibition [2] [%] | growth inhibition [3] [%]
O=C1NCN(c2ccccc2)C12CCN(CCCC(c1ccc(F)cc1)c1ccc(F)cc1)CC2 [Fluspirilene] | 27.7 | 33.4 | 52.2
C[C@H](CSC(=O)c1ccccc1)C(=O)N1C[C@@H](Sc2ccccc2)C[C@H]1C(=O)O [Zofenopril calcium] | 56 | 26.3 | 35.9
